{"source": "paper PMC4132714", "about": "“Phospho-dependent and phospho-independent interactions of the helicase UPF1 with the NMD factors SMG5–SMG7 and SMG6” (Nucleic Acids Research, 2014)", "key": {"[1]": {"molecular_target": "T1, GST-UPF1fl, unphosphorylated (mock-treated with SMG1 KD or not treated) (human) (UniProt Q92900)", "T1 sequence": "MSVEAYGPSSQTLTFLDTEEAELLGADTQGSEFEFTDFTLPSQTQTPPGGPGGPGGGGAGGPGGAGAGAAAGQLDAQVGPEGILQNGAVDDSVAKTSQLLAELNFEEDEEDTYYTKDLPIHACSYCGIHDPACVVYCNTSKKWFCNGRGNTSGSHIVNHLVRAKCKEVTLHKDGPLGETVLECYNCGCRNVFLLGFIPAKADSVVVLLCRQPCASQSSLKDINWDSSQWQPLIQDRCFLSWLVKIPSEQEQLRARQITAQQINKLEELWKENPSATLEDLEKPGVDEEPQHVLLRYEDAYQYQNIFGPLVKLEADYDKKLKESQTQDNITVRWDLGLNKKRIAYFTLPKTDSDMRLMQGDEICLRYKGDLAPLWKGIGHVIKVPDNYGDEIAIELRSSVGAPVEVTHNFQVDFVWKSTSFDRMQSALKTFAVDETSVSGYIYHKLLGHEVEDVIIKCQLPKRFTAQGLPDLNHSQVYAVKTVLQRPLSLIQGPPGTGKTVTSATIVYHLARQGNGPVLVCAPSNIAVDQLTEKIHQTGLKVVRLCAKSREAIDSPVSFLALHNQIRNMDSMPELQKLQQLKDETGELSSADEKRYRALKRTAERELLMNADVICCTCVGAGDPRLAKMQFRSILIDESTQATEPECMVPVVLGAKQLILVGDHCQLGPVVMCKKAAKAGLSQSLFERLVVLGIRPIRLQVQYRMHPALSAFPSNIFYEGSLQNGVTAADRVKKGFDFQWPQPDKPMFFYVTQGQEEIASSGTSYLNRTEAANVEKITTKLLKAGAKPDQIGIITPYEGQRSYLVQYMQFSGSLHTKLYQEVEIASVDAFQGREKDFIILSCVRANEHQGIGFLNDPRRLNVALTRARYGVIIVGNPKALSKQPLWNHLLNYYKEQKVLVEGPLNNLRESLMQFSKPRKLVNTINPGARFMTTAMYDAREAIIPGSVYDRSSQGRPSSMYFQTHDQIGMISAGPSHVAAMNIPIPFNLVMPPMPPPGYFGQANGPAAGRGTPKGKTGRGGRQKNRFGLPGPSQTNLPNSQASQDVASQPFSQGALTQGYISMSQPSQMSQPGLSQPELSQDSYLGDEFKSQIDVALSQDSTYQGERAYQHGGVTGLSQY", "assay": "pull-down; GST pull-down as in Figure 1C with GST-UPF1fl as bait and several preys added together (SMG6fl, UPF2, UPF3, EJC; or SMG6fl and SMG5–7 TPR after treatment with SMG1 wt or KD); Coomassie; both purified"}, "[2]": {"molecular_target": "T1, GST-UPF1fl, unphosphorylated (mock-treated with SMG1 KD or not treated) (human)", "assay": "pull-down; GST pull-down, one prey: ∼2 μg GST-tagged bait with equal amount of untagged prey in 20 mM HEPES pH 7.5, 125 mM NaCl, 2% glycerol, 2 mM DTT (45 μl), 45 min at room temperature; glutathione–Sepharose beads in 20 mM HEPES pH 7.5, 150 mM NaCl, 10% glycerol, 2 mM DTT, 0.1% NP-40, 1 h at 4°C; eluted with glutathione; SDS-PAGE, Coomassie; GST-UPF1 constructs pre-treated with SMG1 wt or SMG1 KD where indicated; both purified"}}, "note": "No constants are given. Whether binding was seen depends on the method and setting. Binding calls can cover weak binding; strength is not graded here. Sequences can lack the tags named with a protein."}
{"substance": "UPF2 with the RRM domain of UPF3 (complex)", "values": [{"measurement": "binding", "setting": "[1]", "value": "binds"}]}
{"substance": "UPF2–UPF3 (complex)", "values": [{"measurement": "binding", "setting": "[1]", "value": "binds"}, {"measurement": "binding", "setting": "[2]", "value": "binds"}]}
